Taken from: PubChem BioAssay AID602196 (INSERM, 2012)

- Test: 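Modifiers of cisplatin sensitivity in A549 cells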
- Cells: human A549 lung cancer cells
- Reagents: siRNA pair against human genes
- Timing: 48 h transfection before cisplatin; time from cisplatin to read-out not stated
- Challenge: cisplatin at a dose killing half of control-siRNA cells; exact dose and duration not given
- Detection: 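Shift in cisplatin death relative to control siRNA, from -50 (all cells die) to +50 (no cells die); siRNAs harmful on their own scored 0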
- Scale: two-siRNA summed score (-2 to +2): higher = both siRNAs protect from cisplatin killing; -2 means both sensitise; mean protection from cisplatin (shift in death) and protection from cisplatin (shift in death), siRNA C and protection from cisplatin (shift in death), siRNA D: higher = protection from cisplatin killing
- Hit rule: 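Each siRNA scores 0 if harmful alone by LDH or WST-1, otherwise +1 if it reduces and -1 if it increases cisplatin killing; a gene is active when both siRNAs agree (sum +2 or -2)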
- Meaning of the calls: active = both siRNAs shift cisplatin killing the same way; inactive = no consistent shift, or siRNA harmful alone
The whole screen tested about 23,000 reagents; this is a random part of them. 455 of all reagents (2%) count as active. 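Active includes both protection and sensitisation; some change values fall well beyond the stated -50 to +50 range.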 A number with no mark means an inactive call. Reagents against one gene are numbered here. Not stated in the record: the amount of reagent.

gene symbol | reagent no. | two-siRNA summed score (-2 to +2) | mean protection from cisplatin (shift in death) (%) | protection from cisplatin (shift in death), siRNA C (%) | protection from cisplatin (shift in death), siRNA D (%)
LOC441175 | 1 | 0 | 3.3 | 3.6 | 2.9
KIAA1545 | 1 | 0 | 13.5 | 16.5 | 10.5
FEM1A (fem-1 homolog A) | 1 | -1 | -11.3 | -30.4 | 7.8
WNT8A (Wnt family member 8A) | 1 | 0 | 9.8 | 16.2 | 3.5
CRK (CRK proto-oncogene, adaptor protein) | 1 | 0 | -19.9 | -5.1 | -34.6
SUPT7L (SPT7 like, STAGA complex subunit gamma) | 1 | 1 | 13.8 | 8.4 | 19.3
ERBIN (erbb2 interacting protein) | 1 | 0 | -4.7 | -4.8 | -4.6
SSTR1 (somatostatin receptor 1) | 1 | 0 | -2.6 | 6 | -11.1
CYP4F11 (cytochrome P450 family 4 subfamily F member 11) | 1 | 0 | -13.3 | -13.8 | -12.9
CYB5R4 (cytochrome b5 reductase 4) | 1 | 0 | 0.8 | -6.4 | 8
DGAT2 (diacylglycerol O-acyltransferase 2) | 1 | 0 | 11.4 | -0.7 | 23.4
DPP8 (dipeptidyl peptidase 8) | 1 | 0 | -0.3 | -7.1 | 6.5
IMMP1L (inner mitochondrial membrane peptidase subunit 1) | 1 | 0 | -5.7 | 3.4 | -14.7
NCKAP5L (NCK associated protein 5 like) | 1 | 0 | 12.5 | 0.1 | 24.9
LINC02372 (long independently transcribed non-coding RNA 2372) | 1 | 0 | 0.3 | 9.6 | -9

Look-ups from above.
WNT8A (Wnt family member 8A), protection from cisplatin (shift in death), siRNA D (%): 3.5
SUPT7L (SPT7 like, STAGA complex subunit gamma), protection from cisplatin (shift in death), siRNA C (%) → 8.4
For “two-siRNA summed score (-2 to +2)”, NCKAP5L (NCK associated protein 5 like) shows 0
Entry for ERBIN (erbb2 interacting protein) under “protection from cisplatin (shift in death), siRNA C (%)”: -4.8
For “two-siRNA summed score (-2 to +2)”, DGAT2 (diacylglycerol O-acyltransferase 2) reads 0

Next reagents follow:
gene symbol | reagent no. | two-siRNA summed score (-2 to +2) | mean protection from cisplatin (shift in death) (%) | protection from cisplatin (shift in death), siRNA C (%) | protection from cisplatin (shift in death), siRNA D (%)
TLR8 (toll like receptor 8) | 1 | 0 | 13.2 | 15.4 | 11.1
S100P (S100 calcium binding protein P) | 1 | -1 | -5.1 | -12.5 | 2.4
TMEM252 (transmembrane protein 252) | 1 | 0 | 12 | 10.3 | 13.8
SYBU (syntabulin) | 1 | 0 | -1.2 | -2.1 | -0.3
LOC389185 | 1 | 0 | 24.4 | 33.4 | 15.3
BRD1 (bromodomain containing 1) | 1 | 0 | 6.4 | 12.7 | 0
ROGDI (rogdi atypical leucine zipper) | 1 | 0 | 5.8 | 1.4 | 10.3
WNT16 (Wnt family member 16) | 1 | 0 | -0.7 | 4.5 | -5.9
SP1 (Sp1 transcription factor) | 1 | 0 | 2.4 | -7 | 11.7
TBL3 (transducin beta like 3) | 1 | 0 | -1 | -11.7 | 9.6
LINC01097 (long independently transcribed non-coding RNA 1097) | 1 | 0 | 8.7 | 7.6 | 9.9
LOC400724 | 1 | 0 | -6.4 | -12.6 | -0.2
DENND1B (DENN domain containing 1B) | 1 | 0 | -3.1 | -3.8 | -2.4
DENND1B (DENN domain containing 1B) | 2 | 0 | 5.8 | -0.7 | 12.3
CHCHD3 (coiled-coil-helix-coiled-coil-helix domain containing 3) | 1 | 1 | 5.8 | -8.6 | 20.1
LOC440549 | 1 | 0 | 15.3 | 14.4 | 16.1
RFESD (Rieske Fe-S domain containing) | 1 | 1 | 19.9 | 19.8 | 20
LOC440939 | 1 | 0 | 9 | 9.5 | 8.5
LPCAT2 (lysophosphatidylcholine acyltransferase 2) | 1 | 0 | 4 | 2 | 6.1
EMILIN2 (elastin microfibril interfacer 2) | 1 | 0 | -0.6 | 6.3 | -7.6
IL3RA (interleukin 3 receptor subunit alpha) | 1 | 0 | 3.3 | 7.2 | -0.6
TSPAN10 (tetraspanin 10) | 1 | 1 | 10.8 | 15.4 | 6.2
KRT78 (keratin 78) | 1 | 0 | 6.7 | -10.1 | 23.4
SLC30A4 | 1 | 0 | 4.3 | 9.3 | -0.6
